The other results are listed elsewhere or left out. Further columns of the screen follow, without active or inactive calls. Most of these compounds were active or inconclusive in the main read-out, so they are no random draw. Words in brackets tell the shape of the fitted curve; partial curves, single points and poor fits give uncertain potencies.

Experimental findings from PubChem BioAssay AID2685 (National Center for Advancing Translational Sciences (NCATS), 2010) are described below.

A short description of the assay: qHTS Assay for Lipid Storage Modulators in Drosophila S3 Cells.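 As to cell number change: cells counted by Cell Tracker Red CMTPX staining in the red channel.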 The settings on record: BODIPY lipid droplet fluorescence, 18-24 h; for cell number change: measured here: cell count max response, cells fed with added oleic acid. The method in brief:
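Drosophila S3 cells loaded with oleic acid (400 uM, as added) and compounds at several concentrations; lipid droplets imaged by 488-nm laser-scanning cytometry, 500–530 nm intensity and object ratio to cell channel. Percent activity normalized to 20 uM Triacsin C.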

Where [1] appears, read: measured here: cell number channel AC50, cells fed with added oleic acid.
Where [2] appears, read: measured here: lipid fluorescence (Fed channel) AC50, cells fed with added oleic acid.

Broadly, the AC50 is the concentration giving half of the maximal activity seen. Take `COc1ccc(CN(C(=O)c2nsc(Cl)c2Cl)C(C(=O)NC2CCCC2)c2ccc(C)cc2)cc1` (stereo unspecified): the cell number change was -79.1%. In addition, the AC50 under setting [1] is 16.4 µM [falling, single point]. Besides, the AC50 under setting [2] was 23.1 µM [falling, single point].

Regarding `Cc1ccccc1NC(=O)NCC1CCN(c2ccc(S(=O)(=O)N3CCOCC3)cc2)CC1`, the cell number change turned out to be 16.7%. In addition, the concentration at half-maximal activity (AC50) under setting [2] was 0.58 µM [rising, partial curve].

For `O=C(CSc1ccc(-c2ccco2)nn1)NC1CCCC1`, the AC50 under setting [1] is 4.61 µM [falling, single point].

For the molecule `O=C(OCC(=O)c1ccc[nH]1)C1=COCCO1`, the cell number change was found to be 18.6%. Moreover, under setting [2], the AC50 was 13 µM [rising, partial curve].

For the molecule `COc1cc(C(=O)O/N=C2\CCCc3c2ccc(OC)c3[N+](=O)[O-])cc(OC)c1OC`, the cell number change came to 120%.

In the case of `CC(=O)NC(=S)NNC(=O)C(c1ccccc1)c1ccccc1`, the cell number change was 8.5%.

`CCc1ccccc1NC(=O)C1CC(c2ccc(OC)cc2)=NO1` (stereo unspecified): the cell number change is -12.6%. For the same molecule, under setting [2], the AC50 is 29.1 µM [rising, single point].

Consider `O=C1CCCN1CC1CCCN(Cc2nc(COc3ccccc3)no2)C1` (stereo unspecified), for which the cell number change turned out to be 7.08%. Besides, under setting [2], the AC50 was 6.51 µM [falling, single point].

Consider `FC(F)(F)c1ccc(-n2cn[nH]c2=S)cc1`, for which the cell number change was -13.3%. The AC50 under setting [1] was 0.82 µM [falling, full curve, poor fit].

Consider `Fc1ccc(N2N=C(c3cccs3)CC2c2ccco2)c(F)c1` (stereo unspecified), for which the cell number change was -43.7%. In addition, under setting [1], the AC50 is 14.6 µM [falling, single point].

For `CN(C(=O)COC(=O)Cc1c[nH]c2ccccc12)c1c(N)n(Cc2ccccc2)c(=O)[nH]c1=O`, the cell number change was -10.3%. Also, the AC50 under setting [2] is 0.092 µM [falling, full curve, poor fit].

For `OC1(c2cccc(C(F)(F)F)c2)CCN(c2ncnc3c2[nH]c2ccc(F)cc23)CC1`, the cell number change is -98.6%. Moreover, the AC50 under setting [1] is 10.3 µM [falling, partial curve]. Further, the AC50 under setting [2] is 16.4 µM [falling, partial curve].

Take `Cc1cc(-c2ccccc2)nc2[n+]1CCN2C`: the cell number change is -3.97%. Further, under setting [2], the AC50 is 2.06 µM [falling, partial curve].

Take `O=C(CCCSc1nc2ccccc2[nH]1)NCc1ccccc1Cl`: the cell number change was -27.1%.

As to `Cc1ccc(S(=O)(=O)N2CCCCC2CCNC(=O)C(=O)Nc2ccccc2F)cc1` (stereo unspecified), the cell number change was -17.9%. For the same molecule, the AC50 under setting [2] was 16.4 µM [falling, single point].

In the case of `COc1ccc(CN(C)C(C)C(=O)Nc2cccc3ccccc23)cc1` (stereo unspecified), the cell number change was found to be 12.1%. In addition, the AC50 under setting [2] was 0.146 µM [falling, full curve, poor fit].

Take `CC(C)(C)c1ccc(C(=O)CCC(=O)NCc2ccccc2)cc1`: the concentration at half-maximal activity (AC50) under setting [2] was 29.1 µM [falling, single point].

In the case of `CCS(=O)(=O)n1nc(-c2ccccc2)nc1SCc1ccccc1`, the half-maximal activity concentration (AC50) reads like this: under setting [1], 1.84 µM [falling, partial curve]; under setting [2], 2.91 µM [falling, partial curve, poor fit].

In the case of `c1ccc(-c2nc(-n3ccnc3)nc(-n3ccnc3)n2)cc1`, the cell number change was -32.8%. In addition, the AC50 under setting [1] was 13 µM [falling, single point]. Besides, under setting [2], the AC50 is 0.13 µM [rising, full curve, poor fit].

On to `Cc1ccc(-c2nnn(CC(=O)N(CC(=O)NC3CCCC3)c3cnc4ccccc4c3)n2)o1`, for which the cell number change amounted to 34.7%. Besides, under setting [1], the AC50 is 10.3 µM [rising, partial curve].

Turning to `O=C(NCC(=O)N1CCN(S(=O)(=O)c2cccc(F)c2)CC1)c1ccc(Br)o1`, the cell number change was 46.9%. Also, the AC50 under setting [1] was 25.9 µM [rising, single point]. Moreover, under setting [2], the AC50 is 25.9 µM [rising, partial curve].

With `COc1ccc(C(C(=O)NCc2ccccc2)N(Cc2ccc3c(c2)OCO3)C(=O)c2cnccn2)cc1` (stereo unspecified), the cell number change was 41.9%. Further, the AC50 under setting [1] was 0.411 µM [rising, full curve]. The half-maximal activity concentration (AC50) under setting [2] is 29.1 µM [rising, single point].

On to `CCn1cc(C2=NC(C)CO2)c2ccccc21` (stereo unspecified), for which the cell number change was 42.3%. Besides, the AC50 under setting [1] was 29.1 µM [rising, single point]. For the same molecule, the AC50 under setting [2] was 29.1 µM [rising, single point].

For `Clc1ccc2nc(CSc3nc4ccccc4o3)cn2c1`, the AC50 under setting [1] was 2.06 µM [rising, partial curve].

For `CCOC(=O)c1cc(NC(=O)N(C(C)C)C(C)C)c(C)nc1C`, the cell number change is 27.9%. Besides, the AC50 under setting [1] is 0.326 µM [rising, full curve]. Further, the AC50 under setting [2] was 0.82 µM [rising, full curve].

In the case of `COc1ccc(NC(=O)CC2SC(N3CCCCC3)=NC2=O)cc1OC` (stereo unspecified), the cell number change was determined as 1.83%. For the same molecule, the AC50 under setting [2] is 0.731 µM [falling, single point].

As to `O=S(=O)(O)c1cc(O)c2c(O)c(N=Nc3cc(Cl)ccc3O)c(S(=O)(=O)O)cc2c1`, the cell number change worked out at 7.21%. For the same molecule, the AC50 under setting [1] was 6.51 µM [rising, single point]. In addition, the AC50 under setting [2] was 6.51 µM [rising, single point].

On to `CCCC(=O)N(Cc1cc2ccccc2[nH]c1=O)c1ccccc1OC`, for which the cell number change was determined as 114%. Moreover, the AC50 under setting [1] is 23.1 µM [rising, partial curve].

In the case of `COc1ccc(S(=O)(=O)N2CCOC2CNC(=O)C(=O)NCCN(C)C)cc1` (stereo unspecified), the cell number change was -4.86%. Also, the AC50 under setting [2] was 0.82 µM [falling, full curve].

As to `Cc1cc(C(=O)NC(=S)Nc2cccc(NC(=O)C(C)C)c2)ccc1[N+](=O)[O-]`, the cell number change is -47.4%. The AC50 under setting [1] was 1.64 µM [falling, full curve]. Further, the AC50 under setting [2] is 1.84 µM [falling, full curve].

With `COCCCNC(=S)N1CCN(c2ccccc2)CC1`, the cell number change is 11.7%. The AC50 under setting [1] was 6.51 µM [falling, single point]. Besides, the AC50 under setting [2] was 6.51 µM [falling, single point].

Turning to `CCOCCCN(C(=O)c1ccco1)C(C(=O)NC1CCCC1)c1cccc(OC)c1OC` (stereo unspecified), the cell number change is 3.03%. Besides, the AC50 under setting [2] is 6.51 µM [rising, single point].

Turning to `Cc1sc2ncnc(N3CCC(C(=O)Nc4ccccc4C(C)(C)C)CC3)c2c1C`, the cell number change was -10.8%.

Take `Nc1ccc(CCS(N)(=O)=O)cc1`: the cell number change amounted to 3.25%. The AC50 under setting [2] was 6.51 µM [falling, single point].

In the case of `COc1ccc(CC(=O)OCC(=O)Nc2ccc3c(c2)OCO3)cc1`, the cell number change is -8.88%. The concentration at half-maximal activity (AC50) under setting [2] is 0.00517 µM [falling, full curve, poor fit].

Regarding `COc1cccc(NC(=O)CSCc2cc(=O)n3ccsc3n2)c1`, the cell number change came out at 30.6%. In addition, the half-maximal activity concentration (AC50) under setting [1] is 0.00461 µM [rising, full curve, poor fit]. Under setting [2], the AC50 is 23.1 µM [rising, single point].
